For one molecule, binding results are on record in doi:10.1101/2023.05.31.543024.

Changes are numbered by the printed parent chain. Results are given in words; binding and its absence hold for the method and conditions named. In cells and extracts the contact can be indirect. Some results given as binding are weak or reduced against the parent protein; the word gives no strength. Tags and fused reporters may be left off the sequences shown.

Holding throughout (experiment): co-IP
In one assay the target is T1, HA-DRG1 L155E (human) (UniProt Q9Y295).
T1 sequence: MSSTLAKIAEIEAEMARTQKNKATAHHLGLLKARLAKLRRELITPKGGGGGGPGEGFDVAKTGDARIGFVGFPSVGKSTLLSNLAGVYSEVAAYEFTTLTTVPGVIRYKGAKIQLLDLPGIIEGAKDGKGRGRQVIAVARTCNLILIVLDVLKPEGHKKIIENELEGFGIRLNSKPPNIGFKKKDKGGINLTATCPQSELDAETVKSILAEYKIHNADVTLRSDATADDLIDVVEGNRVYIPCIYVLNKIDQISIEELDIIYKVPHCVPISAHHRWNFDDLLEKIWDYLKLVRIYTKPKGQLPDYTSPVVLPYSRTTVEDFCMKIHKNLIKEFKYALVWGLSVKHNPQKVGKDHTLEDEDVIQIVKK

Another assay addresses T2, HA-DRG2 D257A (human) (UniProt P55039).
T2 sequence: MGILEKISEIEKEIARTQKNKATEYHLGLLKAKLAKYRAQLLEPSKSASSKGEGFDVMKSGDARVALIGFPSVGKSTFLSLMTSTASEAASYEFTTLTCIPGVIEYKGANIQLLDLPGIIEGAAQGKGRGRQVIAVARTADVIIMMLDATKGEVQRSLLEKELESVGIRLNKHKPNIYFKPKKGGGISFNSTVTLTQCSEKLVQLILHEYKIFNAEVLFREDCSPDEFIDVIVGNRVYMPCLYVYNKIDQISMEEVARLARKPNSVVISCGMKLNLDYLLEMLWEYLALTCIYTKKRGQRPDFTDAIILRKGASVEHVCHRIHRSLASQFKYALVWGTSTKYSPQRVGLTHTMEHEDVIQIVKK

Assay [1] concerns the target T3, HA-DRG2 E153L + R258I + A260Y + Y278D (human) (UniProt P55039).
T3 sequence: T2 sequence with E153L, A257D, R258I, A260Y, Y278D

Another assay concerns the target T4, HA-DRG2 K262V (human) (UniProt P55039).
T4 sequence: T2 sequence with A257D, K262V

The target in another assay is T5, HA-DRG2 Y278D (human) (UniProt P55039).
T5 sequence: T2 sequence with A257D, Y278D

B1: DRG family regulatory protein 2 (DFRP2), endogenous (protein, UniProt Q9H446 1-243)
chain: MTDYGEEQRNELEALESIYPDSFTVLSENPPSFTITVTSEAGENDETVQTTLKFTYSEKYPDEAPLYEIFSQENLEDNDVSDILKLLALQAEENLGMVMIFTLVTAVQEKLNEIVDQIKTRREEEKKQKEKEAEEAEKQLFHGTPVTIENFLNWKAKFDAELLEIKKKRMKEEEQAGKNKLSGKQLFETDHNLDTSDIQFLEDAGNNVEVDESLFQEMDDLELEDDEDDPDYNPADPESDSAD
Regarding B1, the binding entry is given as “no binding” with HA-DRG1 L155E (human); “binds” in the assay with HA-DRG2 D257A (human); “no binding” in assay [1]; “binds” with HA-DRG2 K262V (human); “binds” with HA-DRG2 Y278D (human).
